This is an account of results in paper PMC7377239, “Cardiovascular Effects of Polychlorinated Biphenyls and Their Major Metabolites” (Environmental Health Perspectives, 2020).

The structures appear in SMILES notation. Counter-ions that a name gives are not always drawn.

This data set has as its system iPSC-CMs, iPSC-ECs and HUVECs phenotypes. As to the kind of experiment: ToxPi 2.0 integration of POD values and physicochemical descriptors. Set-up: species or system human. The conditions noted are these: for huvec.mtl.18hr ToxPi / huvec.tlps.18hr ToxPi / huvec.tta.18hr ToxPi / huvec.ttl.18hr ToxPi / huvec.cyto.24hr ToxPi / huvec.mito.24hr ToxPi / huvec.mitoint.24hr ToxPi / huvec.nma.24hr ToxPi / huvec.tc.24hrs ToxPi: HUVECs; for huvec.mtl.18hr ToxPi / huvec.tlps.18hr ToxPi / huvec.tta.18hr ToxPi / huvec.ttl.18hr ToxPi / huvec.cyto.24hr ToxPi / huvec.mito.24hr ToxPi / huvec.mitoint.24hr ToxPi / huvec.nma.24hr ToxPi / huvec.tc.24hrs ToxPi / endo.mtl.18hr ToxPi / endo.tlps.18hr ToxPi / endo.tta.18hr ToxPi / endo.ttl.18hr ToxPi / endo.cyto.24hr ToxPi / endo.mito.24hr ToxPi / endo.mitoint.24hr ToxPi / endo.nma.24hr ToxPi / endo.tc.24hrs ToxPi: scaled from POD; for cm.amp.avg.24hrs ToxPi / cm.amp.avg.90min ToxPi / cm.amp.cv.24hrs ToxPi / cm.amp.cv.90min ToxPi / cm.bpm.24hrs ToxPi / cm.bpm.90min ToxPi / cm.cam.24hrs ToxPi / cm.cam.90min ToxPi / cm.decay.rise.24hrs ToxPi / cm.decay.rise.90min ToxPi / cm.mii.24hrs ToxPi / cm.mii.90min ToxPi / cm.mito.24hrs ToxPi / cm.mito.90min ToxPi / cm.spacing.cv.24hrs ToxPi / cm.spacing.cv.90min ToxPi / cm.tc.24hrs ToxPi / cm.tc.90min ToxPi: iPSC-CM; for endo.mtl.18hr ToxPi / endo.tlps.18hr ToxPi / endo.tta.18hr ToxPi / endo.ttl.18hr ToxPi: iPSC-EC tube formation; for endo.cyto.24hr ToxPi / endo.mito.24hr ToxPi / endo.mitoint.24hr ToxPi / endo.nma.24hr ToxPi / endo.tc.24hrs ToxPi: iPSC-EC; for ToxPi_Score_Bioactivity: Biological Activity ToxPi, POD values of iPSC-CM, iPSC-EC and HUVEC phenotypes integrated; for ToxPi_Score_ChemBiol: Chemical-Biological Integration ToxPi, in vitro data plus physicochemical descriptors. The text has this:
Phenotypic responses were quantitatively assessed using concentration–response modeling as detailed elsewhere ([Sirenko et al. 2017]). Briefly, phenotypic readouts were normalized to vehicle controls and fit to a four-parameter logistic model in R studio software (version 3.1.1; R Development Core Team). Following EPA guidance on dose–response modeling, a cutoff of one standard deviation across means of vehicle control (i.e., 0.5% vol/vol DMSO in cell culture media) wells was applied to determine the point-of-departure (POD) values ([U.S. EPA 2012]). In the absence of a concentration–response, the highest tested concentration (i.e., 100μM ) was assigned as “no observable adverse effect level.” The concentration–response assessment R script, as well as templates for vehicle and concentration–response data, are available as a supplement to Sirenko et al. ([2017]). The ability of physicochemical properties to predict differences in PODs were evaluated by multiregression and mixed-effects modeling using R.
POD values were then integrated using ToxPi 2.0 ([Marvel et al. 2018]) software. In ToxPi, each slice is representative of cell type– and time-point–specific phenotypes. The area of each slice is proportional to the relative value (e.g., bioactivity or physicochemical descriptor value) of the chemical within the data set. ToxPi scores were used to rank PCBs and their metabolites according to their overall bioactivity and to determine variability in total observable biological responses and chemical characteristics for each major metabolite class and chlorination status (mono-, hexa-chlorinated). Additional visualizations such as dumbbell and principal components analysis plots were generated in R Studio (version 1.1.456; R version 3.5.1; R Development Core Team) using the ggplot2 package.

For `COc1ccc(-c2ccc(Cl)cc2)cc1` [4'-OMe PCB3], the “huvec.mtl.18hr ToxPi” value is 0.59, the “huvec.tlps.18hr ToxPi” value stood at 0.13, the “huvec.tta.18hr ToxPi” value is given as 0.48 and the “huvec.ttl.18hr ToxPi” value worked out at 0.38. Further, the “huvec.cyto.24hr ToxPi” value came to 0.25, the “huvec.mito.24hr ToxPi” value came out at 0.33, the “huvec.mitoint.24hr ToxPi” value worked out at 0.23 and the “huvec.nma.24hr ToxPi” value worked out at 0.54. For the same compound, the “huvec.tc.24hrs ToxPi” value is 0.25, the “cm.amp.avg.24hrs ToxPi” value is 0.15, the “cm.amp.avg.90min ToxPi” value came out at 0.15 and the “cm.amp.cv.24hrs ToxPi” value is 0.00. Also, the “cm.amp.cv.90min ToxPi” value is given as 0.23, the “cm.bpm.24hrs ToxPi” value came to 0.43, the “cm.bpm.90min ToxPi” value amounted to 0.42 and the “cm.cam.24hrs ToxPi” value was 0.0252. The “cm.cam.90min ToxPi” value was 0.00, the “cm.decay.rise.24hrs ToxPi” value was 0.57, the “cm.decay.rise.90min ToxPi” value is reported as 0.00 and the “cm.mii.24hrs ToxPi” value was determined as 0.00. For the same compound, the “cm.mii.90min ToxPi” value is reported as 0.00, the “cm.mito.24hrs ToxPi” value is 0.00, the “cm.mito.90min ToxPi” value is 0.00 and the “cm.spacing.cv.24hrs ToxPi” value was 0.50. In addition, the “cm.spacing.cv.90min ToxPi” value stood at 0.07, the “cm.tc.24hrs ToxPi” value turned out to be 0.00, the “cm.tc.90min ToxPi” value is 0.00 and the “endo.mtl.18hr ToxPi” value is 0.35. Besides, the “endo.tlps.18hr ToxPi” value is 0.34, the “endo.tta.18hr ToxPi” value amounted to 0.23, the “endo.ttl.18hr ToxPi” value came out at 0.24 and the “endo.cyto.24hr ToxPi” value amounted to 0.00. For the same compound, the “endo.mito.24hr ToxPi” value is recorded as 0.00, the “endo.mitoint.24hr ToxPi” value is 0.22, the “endo.nma.24hr ToxPi” value stood at 0.00 and the “endo.tc.24hrs ToxPi” value came to 0.00.

For the compound `COc1ccc(-c2ccc(Cl)cc2)cc1` [4'-OMe-PCB 3, 4′-methoxy-4-chlorobiphenyl], the ToxPi_Score_Bioactivity is listed as 0.2516 and the ToxPi_Score_ChemBiol amounted to 0.248.

Turning to `O=S(=O)(O)Oc1ccc(-c2ccc(Cl)cc2)cc1` [4'-PCB 3 sulfate], the ToxPi_Score_Bioactivity is recorded as 0.1398 and the ToxPi_Score_ChemBiol was determined as 0.244.

Turning to `O=S(=O)(O)Oc1ccc(-c2ccc(Cl)cc2)cc1` [4'-yl PCB 3 sulfate], the “huvec.mtl.18hr ToxPi” value is on record as 0.49, the “huvec.tlps.18hr ToxPi” value turned out to be 0.00, the “huvec.tta.18hr ToxPi” value is 0.27 and the “huvec.ttl.18hr ToxPi” value worked out at 0.00. Further, the “huvec.cyto.24hr ToxPi” value was 0.00, the “huvec.mito.24hr ToxPi” value was 0.00, the “huvec.mitoint.24hr ToxPi” value was determined as 0.00 and the “huvec.nma.24hr ToxPi” value amounted to 0.00. Further, the “huvec.tc.24hrs ToxPi” value is reported as 0.00, the “cm.amp.avg.24hrs ToxPi” value is 0.00, the “cm.amp.avg.90min ToxPi” value worked out at 0.66 and the “cm.amp.cv.24hrs ToxPi” value is reported as 0.00. Moreover, the “cm.amp.cv.90min ToxPi” value was 0.26, the “cm.bpm.24hrs ToxPi” value came out at 0.00, the “cm.bpm.90min ToxPi” value is 0.19 and the “cm.cam.24hrs ToxPi” value turned out to be 0.00. The “cm.cam.90min ToxPi” value is reported as 0.00, the “cm.decay.rise.24hrs ToxPi” value came to 0.00, the “cm.decay.rise.90min ToxPi” value was 0.46 and the “cm.mii.24hrs ToxPi” value was found to be 0.17. The “cm.mii.90min ToxPi” value was determined as 0.00, the “cm.mito.24hrs ToxPi” value worked out at 0.00, the “cm.mito.90min ToxPi” value was 0.00 and the “cm.spacing.cv.24hrs ToxPi” value stood at 0.00. Further, the “cm.spacing.cv.90min ToxPi” value was 0.10, the “cm.tc.24hrs ToxPi” value is recorded as 0.00, the “cm.tc.90min ToxPi” value was found to be 0.00 and the “endo.mtl.18hr ToxPi” value was determined as 0.33. For the same compound, the “endo.tlps.18hr ToxPi” value was 0.34, the “endo.tta.18hr ToxPi” value is reported as 0.16, the “endo.ttl.18hr ToxPi” value worked out at 0.20 and the “endo.cyto.24hr ToxPi” value is 0.00. Also, the “endo.mito.24hr ToxPi” value is 0.00, the “endo.mitoint.24hr ToxPi” value is 0.00, the “endo.nma.24hr ToxPi” value is given as 0.00 and the “endo.tc.24hrs ToxPi” value is listed as 0.00.

On to `O=C1C=CC(=O)C(c2ccc(Cl)cc2)=C1` [4-Cl-BQ, 2-(4-Chlorophenyl)benzo-2,5-quinone], for which the ToxPi_Score_Bioactivity is on record as 0.6912, the ToxPi_Score_ChemBiol is 0.5971, the “huvec.mtl.18hr ToxPi” value was 0.99 and the “huvec.tlps.18hr ToxPi” value is recorded as 0.56. For the same compound, the “huvec.tta.18hr ToxPi” value is recorded as 1.00, the “huvec.ttl.18hr ToxPi” value turned out to be 0.90, the “huvec.cyto.24hr ToxPi” value amounted to 1.00 and the “huvec.mito.24hr ToxPi” value turned out to be 0.85. Further, the “huvec.mitoint.24hr ToxPi” value came to 0.99, the “huvec.nma.24hr ToxPi” value stood at 0.67, the “huvec.tc.24hrs ToxPi” value amounted to 1.00 and the “cm.amp.avg.24hrs ToxPi” value turned out to be 0.33. The “cm.amp.avg.90min ToxPi” value was found to be 0.32, the “cm.amp.cv.24hrs ToxPi” value is given as 0.31, the “cm.amp.cv.90min ToxPi” value was determined as 0.25 and the “cm.bpm.24hrs ToxPi” value was 0.66. For the same compound, the “cm.bpm.90min ToxPi” value was found to be 0.16, the “cm.cam.24hrs ToxPi” value was found to be 1.00, the “cm.cam.90min ToxPi” value was 0.40 and the “cm.decay.rise.24hrs ToxPi” value came to 0.86. The “cm.decay.rise.90min ToxPi” value stood at 0.21, the “cm.mii.24hrs ToxPi” value is 0.20, the “cm.mii.90min ToxPi” value came out at 0.89 and the “cm.mito.24hrs ToxPi” value turned out to be 0.70. Further, the “cm.mito.90min ToxPi” value was 0.39, the “cm.spacing.cv.24hrs ToxPi” value is listed as 0.75, the “cm.spacing.cv.90min ToxPi” value worked out at 0.31 and the “cm.tc.24hrs ToxPi” value was 0.00. Also, the “cm.tc.90min ToxPi” value stood at 0.00, the “endo.mtl.18hr ToxPi” value was determined as 0.58, the “endo.tlps.18hr ToxPi” value is reported as 0.73 and the “endo.tta.18hr ToxPi” value was 0.13. Further, the “endo.ttl.18hr ToxPi” value came to 0.20, the “endo.cyto.24hr ToxPi” value amounted to 0.57, the “endo.mito.24hr ToxPi” value is on record as 0.57 and the “endo.mitoint.24hr ToxPi” value is listed as 0.27. In addition, the “endo.nma.24hr ToxPi” value came out at 0.36 and the “endo.tc.24hrs ToxPi” value came to 0.65.
